Reference: article PMC10798921, “Target-induced hot spot construction for sensitive and selective surface-enhanced Raman scattering detection of matrix metalloproteinase MMP-9”

System: MMP-11
Assay: SERS nanosensor (aptamer strand displacement)
Conditions: 100 ng/mL, AuNS-2 with DNA2/DTNB present; DNA1 3' ThioMC3-D; duplex annealed in 8 mM phosphate, 0.8 mM MgCl2, 20 mM NaCl; cell supernatant assay at 37 C for 2 h; recombinant protein; label: 13-nm gold nanosphere via DNA1 3' thiol

**Q.** Does “TCGTATGGCACGGGGTTGGTGTTGGGTTGG / GGTGTGCCATACGAAA [MMP-9 aptamer (annealed to DNA1 on AuNS-1)]” bind?
**A.** no binding

The exact form of at least one protein or probe is not confirmed. Negatives hold for the conditions tested.
